Data on one substance can be found in US20130267584A1.

Protein sequences, listed by entry. Tags and fused reporters are not part of them. Lines headed by an entry give the natural chain unless they say otherwise; changes in a name come on top. Residues count along the entry.
UniProt Q07954, residues 805-1184: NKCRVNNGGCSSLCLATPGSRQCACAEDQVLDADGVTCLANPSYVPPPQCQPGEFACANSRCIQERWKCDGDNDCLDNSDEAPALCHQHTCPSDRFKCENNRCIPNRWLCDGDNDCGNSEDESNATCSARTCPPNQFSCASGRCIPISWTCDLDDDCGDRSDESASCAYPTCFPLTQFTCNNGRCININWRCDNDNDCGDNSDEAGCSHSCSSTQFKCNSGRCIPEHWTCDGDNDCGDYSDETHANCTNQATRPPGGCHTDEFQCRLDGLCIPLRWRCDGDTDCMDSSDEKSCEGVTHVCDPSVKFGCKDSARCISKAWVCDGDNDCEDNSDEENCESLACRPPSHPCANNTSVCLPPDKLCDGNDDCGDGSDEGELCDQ
UniProt P10646: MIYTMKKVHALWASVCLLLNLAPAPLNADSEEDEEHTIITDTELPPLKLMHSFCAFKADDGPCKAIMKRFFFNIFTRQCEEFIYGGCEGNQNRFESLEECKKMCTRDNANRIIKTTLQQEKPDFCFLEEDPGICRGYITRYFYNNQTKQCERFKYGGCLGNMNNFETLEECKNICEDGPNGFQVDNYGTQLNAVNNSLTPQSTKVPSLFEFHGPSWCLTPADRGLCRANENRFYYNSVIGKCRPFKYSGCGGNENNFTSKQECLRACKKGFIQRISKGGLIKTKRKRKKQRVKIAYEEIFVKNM

The target of the assay is biotinylated recombinant human LRP-1 Cluster II Fc Chimera protein (R&D Systems) (human) (UniProt Q07954). As to the kind of experiment: SPR (BIAcore T200, 37 C), biotinylated LRP-1 Cluster II Fc on NeutrAvidin C1 chip, fl-TFPI with 1 uM BAX 499. For orientation: SPR reads the build-up and loss of mass on a sensor chip optically.

Results are given in words; binding and its absence hold for the method and conditions named. A result given as binding can be weak or reduced; the word gives no strength.

For “fl-TFPI complexed to BAX 499 (from UniProt P10646)”, the binding result is recorded as “binds”.
